The data set is described as follows: peptide synthesis. As to conditions: whole synthesis, RP-HPLC.

HELM strings list residues between dots; [ac] is acetyl, [am] amide, other brackets name non-standard units.

“PEPTIDE1{H.[dS].Q.G.T.F.T.S.D.L.S.[LysN3].Y.L.E.E.E.A.V.R.E.F.I.A.W.L.K.N.G.G.P.S.R.H.Y.L.N.L.V.T.R.Q.R.Y.[am]}$$$$V2.0”: the “final HPLC purity” value was found to be 95.05%.

Values taken from article PMC7956155 (Journal of Medicinal Chemistry, 2021).
